Measured values taken from patent publication US20040170622A1, “Methods and compositions for modulating XBP-1 activity” (President and Fellows of Harvard College, priority 2002, published 2004).
Some of these results come from one statement about several compounds together.

System: XBP-1^−/− B cells
Assay: Ig production by retrovirally transduced XBP-1-/- primary B cells (ELISA)
Format: cell-based, mouse
Conditions: LPS 10 μg/ml 72 h
Method: Assays to measure immunoglobulin or cytokine levels in culture supernatants were performed as described (e.g., Hodge et al., 1996 Immunity. 4:397-405 or Science. 1996 274:1903-5).
The XBP-1 cDNAs for the unspliced (XBP-1u/s) and the spliced (XBP-1s) forms were PCR-amplified from the total RNA of untreated and tunicamycin treated NIH3T3 cells, respectively, with a primer set (5′-[…]-3′ (SEQ ID NO: 7) and 5′-[…]-3′) (SEQ ID NO: 8). XBP-1u form was generated by a PCR-based mutagenesis from XBP-unspliced/s cDNA so that the two G residues at position 532 and 535 were changed to A without changing amino acid sequences in the XBP-1u open reading frame. Numbers are based on the sequences from gene bank database (NM_013842 [gi:13775155]). These XBP-1 cDNAs were inserted into the GFP-RV retroviral vector by using blunt end ligation (Sambrook et al., 1989). EFFECTENE transfection (Quiagen) was used to introduce the DNA into the Phoenix cell line as described by manufacturer (e.g., Reimold et al., 2001 Nature. 412:300-7 or Int Immunol. 2001 13:241-8). Viral supernatants were harvested after 48 hours and frozen at −80° C. for later use. […]
The effects of these three different forms of XBP-1 on Ig secretion were compared in wild type and XBP-1^−/− B cells. […] IgM panel(A) and IgG2b panel (B) production analyzed by ELISA from culture supernatants of stimulated B cells. […]

Row | Molecule | secretion of IgG2b compared to control cells
1 | XBP-1u/s: vector expressing XBP-1 mRNA giving the unspliced form and, upon IRE-dependent splicing, the spliced form (protein, UniProt O35426 1-267, looked up, GFP retroviral vector, vector expressing XBP-1 mRNA giving the unspliced form and, upon IRE-dependent splicing, the spliced form) X-box-binding protein 1: MVVVAAAPSAATAAPKVLLLSGQPASGGRALPLMVPGPRAAGSEASGTPQARKRQRLTHLSPEEKALRRKLKNRVAAQTARDRKKARMSELEQQVVDLEEENHKLQLENQLLREKTHGLVVENQELRTRLGMDTLDPDEVPEVEAKGSGVRLVAGSAESAALRLCAPLQQVQAQLSPPQNIFPWTLTLLPLQILSLISFWAFWTSWTLSCFSNVLPQSLLVWRNSQRSTQKDLVPYQPPFLCQWGPHQPSWKPLMNSFVLTMYTPSL | 2-4 fold
2 | XBP-1s: vector encoding only the spliced form of murine XBP-1, a protein of 371 aa (protein) MVVVAAAPSAATAAPKVLLLSGQPASGGRALPLMVPGPRAAGSEASGTPQARKRQRLTHLSPEEKALRRKLKNRVAAQTARDRKKARMSELEQQVVDLEEENHKLQLENQLLREKTHGLVVENQELRTRLGMDTLDPDEVPEVEAKGSGVRLVAGSAESAAGAGPVVTSPEHLPMDSDTVASSDSESDILLGILDKLDPVMFFKCPSPESASLEELPEVYPEGPSSLPASLSLSVGTSSAKLEAINELIRFDHVYTKPLVLEIPSETESQTNVVVKIEEAPLSSSEEDHPEFIVSVKKEPLEDDFIPELGISNLLSSSHCLRPPSCLLDAHSDCGYEGSPSPFSDMSSPLGTDHSWEDTFANELFPQLISV | 2-4 fold
